PubChem BioAssay AID652272 | Drosophila RNAi Screening Center – 2013

- Purpose: 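Genome-wide knock-down search for components of Hedgehog signalling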 (primary screen)
- Cell system: Drosophila clone 8 (Cl8) cells
- Reagents: long dsRNA against Drosophila genes
- Measured: 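Plate reader light from a firefly reporter under a ptc promoter fragment that responds to Hedgehog, with Renilla light as transfection reference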
- Scale: firefly Hh reporter signal: higher = more ptc reporter light; Renilla reference signal: higher = more Renilla control light
- Active means: 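Hit when the z-score averaged over two replicates is under -2 or over +3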
- Calls: active = hit: reporter lowered or raised; inactive = not a hit
The screen tested about 21,000 reagents; this is a random part of those that have a named target and a result. In the full data, 503 (2.4%) are marked active. 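Raw plate light values, not normalised; calls rest on replicate z-scores that were not deposited; hits include reporter decreases as well as increases.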 Entries without a mark were called inactive. A plus sign joins genes that one reagent is predicted to hit. Not given: the amount of reagent, the time to read-out.

no.	gene knocked down	amplicon	firefly Hh reporter signal, replicate 1	firefly Hh reporter signal, replicate 2	firefly Hh reporter signal, replicate 3	Renilla reference signal, replicate 1	Renilla reference signal, replicate 2
1	CG17807	DRSC04296	70961	41222		2707	1700
2	Plzf	DRSC02994	93568	41447		4274	2003
3	CG42557 + CG42558	DRSC13963	57667	3.27e5		13472	7460
4	CG42557 + CG42558	DRSC16329	81072	54384		2145	1888
5	Ipk2	DRSC00357	1.10e5	90316		2317	2148
6	Cpr56F	DRSC07326	82201	42992		2160	3088
7	CG10809	DRSC09802	52256	83513	54576	8275	3409
8	CG11581	DRSC19407	83976	2.46e5		2280	9962
9	AQP	DRSC06122	90215	49052		2307	4053
10	CG2931	DRSC12324	90244	1.45e5		3421	4300
11	CG14448	DRSC11705	77781	79720		2699	2279
12	SppL	DRSC15228	5.66e5	86260		28880	2416
13	CG9962	DRSC00739	1.14e5	58842		2515	1367
14	Rga + asRNA:ASTR	DRSC12364	57835 (active)	85402		3184	4050
15	PPO2	DRSC07102	58324	37128		2976	1752
16	CG15059	DRSC19633	1.21e5	2.83e5		3545	12667
17	Rim	DRSC16224	5.24e5	1.00e5		23944	2038
18	Rim	DRSC16225	1.72e5 (active)	28989		14600	1216
19	Rim	DRSC16226	1.23e5	74160		5060	2909
20	Rim	DRSC16227	6.73e5	1.30e5		39627	3760
21	CG3770	DRSC04416	74336	47987		3258	2349
22	pcs	DRSC07042	1.72e5	77596		6406	1280
23	CG13117	DRSC02215	68385	52937		1701	4738
24	CG5418	DRSC02857	1.27e5	82679		3120	7682

10 entries from above, sorted by “Renilla reference signal, replicate 2”, low to high:
gene knocked down	amplicon	firefly Hh reporter signal, replicate 1	firefly Hh reporter signal, replicate 2	firefly Hh reporter signal, replicate 3	Renilla reference signal, replicate 1	Renilla reference signal, replicate 2
CG42557 + CG42558	DRSC16329	81072	54384		2145	1888
Plzf	DRSC02994	93568	41447		4274	2003
Ipk2	DRSC00357	1.10e5	90316		2317	2148
CG14448	DRSC11705	77781	79720		2699	2279
Cpr56F	DRSC07326	82201	42992		2160	3088
CG10809	DRSC09802	52256	83513	54576	8275	3409
AQP	DRSC06122	90215	49052		2307	4053
CG2931	DRSC12324	90244	1.45e5		3421	4300
CG42557 + CG42558	DRSC13963	57667	3.27e5		13472	7460
CG11581	DRSC19407	83976	2.46e5		2280	9962

The results go on:
no.	gene knocked down	amplicon	firefly Hh reporter signal, replicate 1	firefly Hh reporter signal, replicate 2	firefly Hh reporter signal, replicate 3	Renilla reference signal, replicate 1	Renilla reference signal, replicate 2
25	Rab2	DRSC05017	1.16e5	47653		4416	2016
26	CG7970	DRSC08605	1.46e5	89801		5411	3177
27	CG43123	DRSC05049	1.11e5	2.24e5		3104	10273
28	spz6	DRSC04533	1.23e5	84912		4514	2747
29	CG12134	DRSC06109	1.18e5	78661		2659	6852
30	NimC4	DRSC01945	1.21e5	45888		3398	3876
31	CG10413	DRSC02052	80433	81897		3056	3202
32	arr	DRSC07451	87296	41608		2178	3152
33	CG14435	DRSC17928	89659	2.63e5		3403	9437
34	CG31693	DRSC03674	1.03e5	1.57e5		3268	7008
35	CG9775	DRSC12330	1.77e5	1.46e5		5957	6260
36	mRpL21	DRSC11100	78272	1.11e5		2699	2825
37	CR31822	DRSC01510	1.08e5	1.99e5		3179	9537
38	CG18213	DRSC15316	81925	87866		2277	2178
39	Cyp12e1	DRSC16622	89648	70033		2936	2362
40	CG18585	DRSC02678	80813	1.06e5		3329	4534
41	Shrm	DRSC06437	54610	47607		1306	3146
42	Shrm	DRSC06438	93124	57347		2392	4561
43	Shrm	DRSC07221	82400	67206		3297	2592
44	mAcon1	DRSC01853	70240	55495		1997	5283
45	Vdup1	DRSC08586	91032	50660		2821	4291
46	CG34203	DRSC03855	1.43e5	2.40e5		3916	10728
47	Prim2	DRSC11610	1.14e5	65483		4165	2720
48	ND-42	DRSC16754	96362	79897		3720	2658
49	CG5267	DRSC06928	1.15e5	34216		3051	2288
50	Sgp	DRSC02195	86624	46674		3463	1675
51	elav	DRSC18772	1.48e5	1.07e5		2881	3381
52	Ank	DRSC17127	78003	47497		1811	1544
53	nod	DRSC18900	3.81e5	1.75e5		21788	3517
54	nod	DRSC20356	1.06e5	86616		2516	2188
55	mAChR-B	DRSC16345	68791	1.13e5		2864	3216
56	Argk2	DRSC10483	41552	55952		89	4528
57	Hph	DRSC12164	1.12e5	1.31e5		4624	4675
58	Hph	DRSC12251	63499	90521		2640	3094
